Reference: US20180264134A1 (priority 2015, published 2018)

How the values were obtained:
[1] = system: HaCaT keratinocyte cells; assay: Internalization mechanism (endocytosis inhibitors / siRNA, flow cytometry); format: cell-based, human
Procedure: In an embodiment the HaCaT keratinocyte cells were cultured on 24 well plates (1×10^6 cells/well) and inhibited by one of the following chemicals during 30 min before adding a suspension of Rhodamine-labelled NPs (15 μg/mL): dynasor (100 μM), cytochalasin D (100 μM), nocodazole (25 uM), filipin III (1 μM) and polyinosinic acid (100 μg/mL), 5-(N-ethyl-N-isopropyl)amiloride (EIPA), dextran sulfate. The inhibitor concentrations were based in values reported in literature and further validated by us to have no cytotoxic effect over the period of the assay (6 h), as confirmed by viability assay. The incubation of the cells with NPs for different times was performed in the presence of the inhibitor. As controls, HaCaT keratinocyte cells without NPs and cells incubated with NPs without inhibitor were used. […] Cells were then evaluated as before.
In an embodiment the NP uptake mechanism was also studied on HaCaT keratinocyte cells by silencing specific proteins of clathrin-mediated endocytosis (CLTC and LDLR), caveolin-mediated endocytosis (CAV1), GEEC-CCLIC pathways (CDC42) and macropinocytosis (RAC1 and CTBP1) and scavenger receptor (SCARA3) by siRNA (Thermo Fisher). […] In all FACS analysis, a total of 10,000 events were recorded per run. […]

[2] = system: HaCaT; assay: Intracellular trafficking by confocal microscopy in HaCaT; format: cell-based, human; conditions: 30 min; for colocalization with EEA1 and RAB7: 4 h and 24 h
[3] = peptide made by a vendor; conditions: whole synthesis

Compound | internalization at 4° C. ([1]; 4° C.) | internalization in cells inhibited with polyinosinic acid or dextran sulfate ([1]; scavenger receptor inhibition) | colocalization with EEA1 and RAB7 [2] | colocalization with EEA1 and RAB7 ([2]; listed as soluble LL37) | co-localization with P2X7 ([2]; immunocytochemistry) | final purity (method not given) [3] [%]
CC[C@H](C)[C@H](NC(=O)[C@H](CCCCN)NC(=O)[C@H](CCC(=O)O)NC(=O)[C@H](CCCCN)NC(=O)[C@H](CO)NC(=O)[C@H](CCCCN)NC(=O)[C@H](CCCNC(=N)N)NC(=O)[C@H](Cc1ccccc1)NC(=O)[C@H](Cc1ccccc1)NC(=O)[C@H](CC(=O)O)NC(=O)CNC(=O)[C@H](CC(C)C)NC(=O)[C@@H](N)CC(C)C)C(=O)NCC(=O)N[C@@H](CCCCN)C(=O)N[C@@H](CCC(=O)O)C(=O)N[C@@H](Cc1ccccc1)C(=O)N[C@@H](CCCCN)C(=O)N[C@@H](CCCNC(=N)N)C(=O)N[C@H](C(=O)N[C@H](C(=O)N[C@@H](CCC(N)=O)C(=O)N[C@@H](CCCNC(=N)N)C(=O)N[C@H](C(=O)N[C@@H](CCCCN)C(=O)N[C@@H](CC(=O)O)C(=O)N[C@@H](Cc1ccccc1)C(=O)N[C@@H](CC(C)C)C(=O)N[C@@H](CCCNC(=N)N)C(=O)N[C@@H](CC(N)=O)C(=O)N[C@@H](CC(C)C)C(=O)N[C@H](C(=O)N1CCC[C@H]1C(=O)N[C@@H](CCCNC(=N)N)C(=O)N[C@H](C(=O)N[C@@H](CCC(=O)O)C(=O)N[C@@H](CO)C(=O)N[C@@H](CS)C(N)=O)[C@@H](C)O)C(C)C)[C@@H](C)CC)C(C)C)[C@@H](C)CC [LL37] | significant inhibition | no significant | did not colocalize | any significant colocalization | co-localization | –
LLGDFFRKSKEKIGKEFKRIVQRIKDFLRNLVPRTESC | – | – | – | – | – | 96

For part of these data: End groups of sequences in plain letters are not given here.
